Literature values in patent US20070191465A1, “Channel blocking compounds” (priority 2003, published 2007).
For at least one compound, name, drawing or mass did not settle the structure.

The chains behind the UniProt entries cited, without tags or fusion partners. Where a name states a change or a piece, a line headed by the entry shows the natural chain unless it says otherwise.
UniProt Q12791: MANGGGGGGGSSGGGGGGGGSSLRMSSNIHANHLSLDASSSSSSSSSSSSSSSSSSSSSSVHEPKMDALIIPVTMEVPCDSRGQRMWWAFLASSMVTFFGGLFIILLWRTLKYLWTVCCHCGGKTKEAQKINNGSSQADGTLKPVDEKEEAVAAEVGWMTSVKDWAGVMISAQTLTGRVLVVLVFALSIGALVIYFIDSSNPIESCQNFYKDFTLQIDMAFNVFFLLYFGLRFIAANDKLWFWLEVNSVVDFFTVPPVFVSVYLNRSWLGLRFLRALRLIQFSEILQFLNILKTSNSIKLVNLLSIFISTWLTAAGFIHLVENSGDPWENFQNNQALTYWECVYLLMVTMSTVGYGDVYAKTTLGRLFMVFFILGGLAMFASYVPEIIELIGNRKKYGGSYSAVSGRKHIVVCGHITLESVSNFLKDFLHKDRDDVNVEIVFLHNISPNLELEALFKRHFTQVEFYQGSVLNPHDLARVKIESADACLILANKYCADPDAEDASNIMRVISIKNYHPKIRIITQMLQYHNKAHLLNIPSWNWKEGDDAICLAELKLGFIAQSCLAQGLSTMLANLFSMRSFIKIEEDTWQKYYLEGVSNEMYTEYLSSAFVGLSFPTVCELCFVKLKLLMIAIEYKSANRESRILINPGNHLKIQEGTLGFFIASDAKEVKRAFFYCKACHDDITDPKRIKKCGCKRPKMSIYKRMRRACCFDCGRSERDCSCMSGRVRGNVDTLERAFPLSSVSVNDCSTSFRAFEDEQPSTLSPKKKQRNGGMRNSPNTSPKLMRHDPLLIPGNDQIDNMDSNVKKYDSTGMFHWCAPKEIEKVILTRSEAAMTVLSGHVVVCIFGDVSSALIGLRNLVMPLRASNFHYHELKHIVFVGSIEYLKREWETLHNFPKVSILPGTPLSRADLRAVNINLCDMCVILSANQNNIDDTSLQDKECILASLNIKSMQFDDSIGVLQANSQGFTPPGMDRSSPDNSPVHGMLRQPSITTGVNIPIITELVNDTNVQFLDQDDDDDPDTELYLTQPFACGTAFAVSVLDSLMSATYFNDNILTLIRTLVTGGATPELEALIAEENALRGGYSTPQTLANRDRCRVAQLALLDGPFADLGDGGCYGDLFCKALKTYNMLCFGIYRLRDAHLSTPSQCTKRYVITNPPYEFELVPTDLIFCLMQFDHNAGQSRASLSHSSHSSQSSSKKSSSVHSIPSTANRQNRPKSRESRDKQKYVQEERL

Target: BK channel (Homo sapiens, UniProt Q12791)
Conditions: low concentrations; Knaus et al., 1994; cited from earlier work

Q: For `CC(C)(O)[C@H]1O[C@H]2CC[C@@]3(C)[C@@](O)(CC[C@H]4Cc5c([nH]c6ccccc56)[C@@]43C)C2=CC1=O` [paxilline], which “reversal of channel block by washout” value is on record?
A: Its value is “partially reversed”.
